{"sequences": {"note": "Chains of the proteins cited; added tags and fusions are not shown. Residues count along the entry.", "UniProt P0C6Y1, residues 674-2265": "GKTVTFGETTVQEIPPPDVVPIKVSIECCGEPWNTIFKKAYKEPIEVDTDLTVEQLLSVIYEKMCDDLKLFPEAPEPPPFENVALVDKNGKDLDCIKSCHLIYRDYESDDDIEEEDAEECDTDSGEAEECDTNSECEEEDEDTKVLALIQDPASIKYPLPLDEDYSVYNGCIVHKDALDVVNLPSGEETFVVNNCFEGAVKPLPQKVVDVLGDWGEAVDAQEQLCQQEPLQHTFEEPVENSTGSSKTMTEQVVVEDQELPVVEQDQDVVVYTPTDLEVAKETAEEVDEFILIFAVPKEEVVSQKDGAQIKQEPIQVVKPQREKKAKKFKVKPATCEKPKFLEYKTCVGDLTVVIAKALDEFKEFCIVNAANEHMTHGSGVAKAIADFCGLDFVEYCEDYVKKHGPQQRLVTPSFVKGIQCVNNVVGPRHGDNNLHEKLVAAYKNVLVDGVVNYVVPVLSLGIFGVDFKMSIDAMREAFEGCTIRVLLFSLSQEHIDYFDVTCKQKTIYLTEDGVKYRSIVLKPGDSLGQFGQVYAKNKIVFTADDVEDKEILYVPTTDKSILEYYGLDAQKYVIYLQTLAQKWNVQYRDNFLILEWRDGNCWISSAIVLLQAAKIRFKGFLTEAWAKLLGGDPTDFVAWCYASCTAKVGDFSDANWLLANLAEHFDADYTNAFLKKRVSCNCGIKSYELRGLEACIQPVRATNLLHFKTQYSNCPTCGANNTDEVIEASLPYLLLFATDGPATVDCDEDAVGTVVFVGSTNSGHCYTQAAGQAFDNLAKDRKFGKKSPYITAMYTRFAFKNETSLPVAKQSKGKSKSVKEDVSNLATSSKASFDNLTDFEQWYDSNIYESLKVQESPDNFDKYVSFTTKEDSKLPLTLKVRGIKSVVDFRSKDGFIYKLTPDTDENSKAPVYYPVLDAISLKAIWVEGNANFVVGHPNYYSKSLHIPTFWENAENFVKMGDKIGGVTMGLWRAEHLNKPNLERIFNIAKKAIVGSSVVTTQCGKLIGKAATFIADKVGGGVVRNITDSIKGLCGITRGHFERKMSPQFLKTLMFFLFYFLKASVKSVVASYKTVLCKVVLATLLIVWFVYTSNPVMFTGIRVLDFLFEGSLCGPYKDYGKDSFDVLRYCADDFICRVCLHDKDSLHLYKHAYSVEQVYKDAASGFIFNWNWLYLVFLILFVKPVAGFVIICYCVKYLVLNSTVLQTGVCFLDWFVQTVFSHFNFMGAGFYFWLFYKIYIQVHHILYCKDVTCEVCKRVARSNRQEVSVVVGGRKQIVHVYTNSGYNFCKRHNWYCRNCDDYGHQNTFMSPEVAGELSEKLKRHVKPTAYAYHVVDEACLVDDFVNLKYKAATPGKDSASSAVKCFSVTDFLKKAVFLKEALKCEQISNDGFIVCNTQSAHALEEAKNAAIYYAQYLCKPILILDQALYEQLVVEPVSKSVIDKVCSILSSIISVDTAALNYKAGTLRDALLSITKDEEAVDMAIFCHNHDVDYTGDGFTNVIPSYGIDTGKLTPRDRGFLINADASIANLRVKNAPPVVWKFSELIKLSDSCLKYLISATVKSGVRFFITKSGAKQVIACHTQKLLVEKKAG"}, "source": "paper PMC9570369", "binders": {"B1": {"name": "endogenous melanoma differentiation-associated gene 5 (MDA5) (protein, UniProt Q9BYX4 1-1025)", "chain": "MSNGYSTDENFRYLISCFRARVKMYIQVEPVLDYLTFLPAEVKEQIQRTVATSGNMQAVELLLSTLEKGVWHLGWTREFVEALRRTGSPLAARYMNPELTDLPSPSFENAHDEYLQLLNLLQPTLVDKLLVRDVLDKCMEEELLTIEDRNRIAAAENNGNESGVRELLKRIVQKENWFSAFLNVLRQTGNNELVQELTGSDCSESNAEIENLSQVDGPQVEEQLLSTTVQPNLEKEVWGMENNSSESSFADSSVVSESDTSLAEGSVSCLDESLGHNSNMGSDSGTMGSDSDEENVAARASPEPELQLRPYQMEVAQPALEGKNIIICLPTGSGKTRVAVYIAKDHLDKKKKASEPGKVIVLVNKVLLVEQLFRKEFQPFLKKWYRVIGLSGDTQLKISFPEVVKSCDIIISTAQILENSLLNLENGEDAGVQLSDFSLIIIDECHHTNKEAVYNNIMRHYLMQKLKNNRLKKENKPVIPLPQILGLTASPGVGGATKQAKAEEHILKLCANLDAFTIKTVKENLDQLKNQIQEPCKKFAIADATREDPFKEKLLEIMTRIQTYCQMSPMSDFGTQPYEQWAIQMEKKAAKEGNRKERVCAEHLRKYNEALQINDTIRMIDAYTHLETFYNEEKDKKFAVIEDDSDEGGDDEYCDGDEDEDDLKKPLKLDETDRFLMTLFFENNKMLKRLAENPEYENEKLTKLRNTIMEQYTRTEESARGIIFTKTRQSAYALSQWITENEKFAEVGVKAHHLIGAGHSSEFKPMTQNEQKEVISKFRTGKINLLIATTVAEEGLDIKECNIVIRYGLVTNEIAMVQARGRARADESTYVLVAHSGSGVIEHETVNDFREKMMYKAIHCVQNMKPEEYAHKILELQMQSIMEKKMKTKRNIAKHYKNNPSLITFLCKNCSVLACSGEDIHVIEKMHHVNMTPEFKELYIVRENKALQKKCADYQINGEIICKCGQAWGTMMVHKGLDLPCLKIRNFVVVFKNNSTKKQYKKWVELPITFPNLDYSECCLFSDED"}}, "key": {"[1]": {"molecular_target": "Flag-tagged full-length IBV nsp3 (avian coronavirus infectious bronchitis virus (IBV)) (UniProt P0C6Y1)", "assay": "co-IP"}, "[2]": {"molecular_target": "HA-tagged full-length SARS-CoV-2 nsp3 (SARS-CoV-2) (UniProt P0DTD1)", "assay": "co-IP"}}, "note": "These are yes or no findings as the source states them, for the method shown. Binding seen in cells or lysates may run through a third protein. Some results given as binding are weak or reduced against the parent protein; the word gives no strength.", "data": [{"binder": "B1", "values": [{"measurement": "binding", "setting": "[1]", "value": "binds"}, {"measurement": "binding", "setting": "[2]", "value": "binds"}]}]}
